The supplement of paper PMC8728848
The list shows a part of the results.

Columns and labels:
Experiment in all cases: glycan array binding signal (z-score within array); higher = stronger binding
Conditions in all cases: glycan notation: IUPAC condensed, linker removed
[1] = target: Gal(b1-3)GlcNAc(b1-6)GalNAc
Method in brief: (§1)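 Columns mapping to the same glycan were averaged after glycan names were converted to IUPAC-condensed notation. The data come from 3228 arrays in the Consortium for Functional Glycomics database, limited to those with an available protein sequence. Binding is reported as a within-array Z-score averaged across arrays of one protein sequence and across linkers.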

[2] = target: Gal(b1-3)GlcNAc(b1-6)[Gal(b1-3)]GalNAc
Method in brief: as §1

Gal(b1-3)GlcNAc6S = target: Gal(b1-3)GlcNAc6S
Method in brief: as §1

[3] = target: Gal(b1-3)[Fuc(a1-4)]GlcNAc
Method in brief: as §1

[4] = target: Gal(b1-3)[Fuc(a1-4)]GlcNAc(b1-2)Man
Method in brief: as §1

[5] = target: Gal(b1-3)[Fuc(a1-4)]GlcNAc(b1-2)Man(a1-3)[Gal(b1-3)[Fuc(a1-4)]GlcNAc(b1-2)Man(a1-6)]Man(b1-4)GlcNAc(b1-4)[Fuc(a1-6)]GlcNAc
Method in brief: as §1

[6] = target: Gal(b1-3)[Fuc(a1-4)]GlcNAc(b1-3)Gal(b1-3)[Fuc(a1-4)]GlcNAc
Method in brief: as §1

[7] = target: Gal(b1-3)[Fuc(a1-4)]GlcNAc(b1-3)Gal(b1-4)[Fuc(a1-3)]GlcNAc
Method in brief: as §1

[8] = target: Gal(b1-3)[Fuc(a1-4)]GlcNAc(b1-6)GalNAc
Method in brief: as §1

[9] = target: Gal(b1-3)[GlcNAc(b1-6)]GalNAc
Method in brief: as §1

[10] = target: Gal(b1-3)[Neu5Ac(a2-6)]GalNAc
Method in brief: as §1

[11] = target: Gal(b1-3)[Neu5Ac(a2-6)]GlcNAc(b1-4)Gal(b1-4)Glc
Method in brief: as §1

[12] = target: Gal(b1-3)[Neu5Ac(b2-6)]GalNAc
Method in brief: as §1

Gal(b1-4)Gal = target: Gal(b1-4)Gal
Method in brief: as §1

[13] = target: Gal(b1-4)GalNAc(a1-3)[Fuc(a1-2)]Gal(b1-4)GlcNAc
Method in brief: as §1

[14] = target: Gal(b1-4)GalNAc(b1-3)[Fuc(a1-2)]Gal(b1-4)GlcNAc
Method in brief: as §1

Gal(b1-4)Glc = target: Gal(b1-4)Glc
Method in brief: as §1

Gal(b1-4)Glc6S = target: Gal(b1-4)Glc6S
Method in brief: as §1

Gal(b1-4)GlcNAc = target: Gal(b1-4)GlcNAc
Method in brief: as §1

[15] = target: Gal(b1-4)GlcNAc(a1-6)Gal(b1-4)GlcNAc
Method in brief: as §1

Gal(b1-4)GlcNAc(b1-2)Man = target: Gal(b1-4)GlcNAc(b1-2)Man
Method in brief: as §1

[16] = target: Gal(b1-4)GlcNAc(b1-2)Man(a1-3)Man(b1-4)GlcNAc(b1-4)GlcNAc
Method in brief: as §1

[17] = target: Gal(b1-4)GlcNAc(b1-2)Man(a1-3)[Gal(b1-4)GlcNAc(b1-2)Man(a1-6)]Man(b1-4)GlcNAc(b1-4)GlcNAc
Method in brief: as §1

[18] = target: Gal(b1-4)GlcNAc(b1-2)Man(a1-3)[Gal(b1-4)GlcNAc(b1-2)Man(a1-6)]Man(b1-4)GlcNAc(b1-4)[Fuc(a1-6)]GlcNAc
Method in brief: as §1

[19] = target: Gal(b1-4)GlcNAc(b1-2)Man(a1-3)[Gal(b1-4)GlcNAc(b1-2)Man(a1-6)][Gal(b1-4)GlcNAc(b1-4)]Man(b1-4)GlcNAc(b1-4)[Fuc(a1-6)]GlcNAc
Method in brief: as §1

[20] = target: Gal(b1-4)GlcNAc(b1-2)Man(a1-3)[Gal(b1-4)GlcNAc(b1-2)Man(a1-6)][GlcNAc(b1-4)]Man(b1-4)GlcNAc(b1-4)[Fuc(a1-6)]GlcNAc
Method in brief: as §1

[21] = target: Gal(b1-4)GlcNAc(b1-2)Man(a1-3)[GlcNAc(b1-2)Man(a1-6)]Man(b1-4)GlcNAc(b1-4)GlcNAc
Method in brief: as §1

[22] = target: Gal(b1-4)GlcNAc(b1-2)Man(a1-3)[GlcNAc(b1-4)][Gal(b1-4)GlcNAc(b1-2)Man(a1-6)]Man(b1-4)GlcNAc(b1-4)GlcNAc
Method in brief: as §1

[23] = target: Gal(b1-4)GlcNAc(b1-2)Man(a1-3)[Man(a1-6)]Man(b1-4)GlcNAc(b1-4)GlcNAc
Method in brief: as §1

[24] = target: Gal(b1-4)GlcNAc(b1-2)Man(a1-6)Man(b1-4)GlcNAc(b1-4)GlcNAc
Method in brief: as §1

[25] = target: Gal(b1-4)GlcNAc(b1-2)Man(a1-6)[GlcNAc(b1-2)Man(a1-3)]Man(b1-4)GlcNAc(b1-4)GlcNAc
Method in brief: as §1

[26] = target: Gal(b1-4)GlcNAc(b1-2)Man(a1-6)[Man(a1-3)]Man(b1-4)GlcNAc(b1-4)GlcNAc
Method in brief: as §1

[27] = target: Gal(b1-4)GlcNAc(b1-2)[Gal(b1-4)GlcNAc(b1-4)]Man(a1-3)[Gal(b1-4)GlcNAc(b1-2)Man(a1-6)]Man(b1-4)GlcNAc(b1-4)GlcNAc
Method in brief: as §1

[28] = target: Gal(b1-4)GlcNAc(b1-2)[Gal(b1-4)GlcNAc(b1-4)]Man(a1-3)[Gal(b1-4)GlcNAc(b1-2)[Gal(b1-4)GlcNAc(b1-6)]Man(a1-6)]Man(b1-4)GlcNAc(b1-4)GlcNAc
Method in brief: as §1

[29] = target: Gal(b1-4)GlcNAc(b1-2)[Gal(b1-4)GlcNAc(b1-4)]Man(a1-3)[GlcNAc(b1-4)][Gal(b1-4)GlcNAc(b1-2)Man(a1-6)]Man(b1-4)GlcNAc(b1-4)GlcNAc
Method in brief: as §1

[30] = target: Gal(b1-4)GlcNAc(b1-2)[Gal(b1-4)GlcNAc(b1-4)]Man(a1-3)[GlcNAc(b1-4)][Gal(b1-4)GlcNAc(b1-2)[Gal(b1-4)GlcNAc(b1-6)]Man(a1-6)]Man(b1-4)GlcNAc(b1-4)GlcNAc
Method in brief: as §1

[31] = target: Gal(b1-4)GlcNAc(b1-2)[Gal(b1-4)GlcNAc(b1-6)]Man(a1-6)[Gal(b1-4)GlcNAc(b1-2)Man(a1-3)]Man(b1-4)GlcNAc(b1-4)GlcNAc
Method in brief: as §1

[32] = target: Gal(b1-4)GlcNAc(b1-2)[Gal(b1-4)GlcNAc(b1-6)]Man(a1-6)[Gal(b1-4)GlcNAc(b1-2)Man(a1-3)]Man(b1-4)GlcNAc(b1-4)[Fuc(a1-6)]GlcNAc
Method in brief: as §1

[33] = target: Gal(b1-4)GlcNAc(b1-2)[Gal(b1-4)GlcNAc(b1-6)]Man(a1-6)[GlcNAc(b1-4)][Gal(b1-4)GlcNAc(b1-2)Man(a1-3)]Man(b1-4)GlcNAc(b1-4)GlcNAc
Method in brief: as §1

[34] = target: Gal(b1-4)GlcNAc(b1-2)[Gal(b1-4)GlcNAc(b1-6)]Man(a1-6)[GlcNAc(b1-4)][Gal(b1-4)GlcNAc(b1-2)[Gal(b1-4)GlcNAc(b1-4)]Man(a1-3)]Man(b1-4)GlcNAc(b1-4)[Fuc(a1-6)]GlcNAc
Method in brief: as §1

[35] = target: Gal(b1-4)GlcNAc(b1-3)Gal(b1-3)GalNAc
Method in brief: as §1

[36] = target: Gal(b1-4)GlcNAc(b1-3)Gal(b1-3)GlcNAc
Method in brief: as §1

[37] = target: Gal(b1-4)GlcNAc(b1-3)Gal(b1-4)Glc
Method in brief: as §1

[38] = target: Gal(b1-4)GlcNAc(b1-3)Gal(b1-4)GlcNAc
Method in brief: as §1

[39] = target: Gal(b1-4)GlcNAc(b1-3)Gal(b1-4)GlcNAc(b1-2)Man(a1-3)[Gal(b1-4)GlcNAc(b1-3)Gal(b1-4)GlcNAc(b1-2)Man(a1-6)]Man(b1-4)GlcNAc(b1-4)GlcNAc
Method in brief: as §1

B1: Ovorubin (Pomacea canaliculata), J7I2T6 (protein)
chain: MFVATSLLLAIATLVVRASPHNYLIMDIEPPKSVSERDILNLLSPLQVKHSFRVTGSTRLLIVIRLDAQSYEKLDEITVPGKVEVIPAVNMADTMERCGVSWPRVELTDDNVTLFESESTLTDVTKEQLKAMLIGYGEHMSGLLQAHRFEYYQAAGATPHRHFVFVNSVPDEIEVFGREGVDIWGGPGEFVVKPQYVTRI
In the case of B1, the “glycan array binding signal (z-score)” value [1] is reported as 0.837, the “glycan array binding signal (z-score)” value [2] is reported as 0.3 and the “glycan array binding signal (z-score)” value (Gal(b1-3)GlcNAc6S) is reported as 1.04. For the same binder, the “glycan array binding signal (z-score)” value [3] was 0.323, the “glycan array binding signal (z-score)” value [4] was 0.038 and the “glycan array binding signal (z-score)” value [5] was 0.299. The “glycan array binding signal (z-score)” value [6] was -0.872, the “glycan array binding signal (z-score)” value [7] was -0.195 and the “glycan array binding signal (z-score)” value [8] was 0.733. For the same binder, the “glycan array binding signal (z-score)” value [9] was -0.56, the “glycan array binding signal (z-score)” value [10] was -0.732 and the “glycan array binding signal (z-score)” value [11] was 0.038. For the same binder, the “glycan array binding signal (z-score)” value [12] was -0.862, the “glycan array binding signal (z-score)” value (Gal(b1-4)Gal) was -0.269 and the “glycan array binding signal (z-score)” value [13] was -0.534. The “glycan array binding signal (z-score)” value [14] was -0.791, the “glycan array binding signal (z-score)” value (Gal(b1-4)Glc) was 0.37 and the “glycan array binding signal (z-score)” value (Gal(b1-4)Glc6S) was -0.154. For the same binder, the “glycan array binding signal (z-score)” value (Gal(b1-4)GlcNAc) was -0.56, the “glycan array binding signal (z-score)” value [15] was -0.871 and the “glycan array binding signal (z-score)” value (Gal(b1-4)GlcNAc(b1-2)Man) was 0.118. For the same binder, the “glycan array binding signal (z-score)” value [16] was -0.117, the “glycan array binding signal (z-score)” value [17] was -0.589 and the “glycan array binding signal (z-score)” value [18] was -0.364. For the same binder, the “glycan array binding signal (z-score)” value [19] was -0.781, the “glycan array binding signal (z-score)” value [20] was -0.632 and the “glycan array binding signal (z-score)” value [21] was -0.186. The “glycan array binding signal (z-score)” value [22] was -0.29, the “glycan array binding signal (z-score)” value [23] was -0.423 and the “glycan array binding signal (z-score)” value [24] was -0.595. The “glycan array binding signal (z-score)” value [25] was -0.27, the “glycan array binding signal (z-score)” value [26] was -0.329 and the “glycan array binding signal (z-score)” value [27] was -0.481. The “glycan array binding signal (z-score)” value [28] was -0.953, the “glycan array binding signal (z-score)” value [29] was -0.472 and the “glycan array binding signal (z-score)” value [30] was 1.26. For the same binder, the “glycan array binding signal (z-score)” value [31] was -0.562, the “glycan array binding signal (z-score)” value [32] was -0.347 and the “glycan array binding signal (z-score)” value [33] was -0.274. For the same binder, the “glycan array binding signal (z-score)” value [34] was 0.804, the “glycan array binding signal (z-score)” value [35] was -0.999 and the “glycan array binding signal (z-score)” value [36] was 0.555. For the same binder, the “glycan array binding signal (z-score)” value [37] was -0.794, the “glycan array binding signal (z-score)” value [38] was -0.609 and the “glycan array binding signal (z-score)” value [39] was 0.281.
